Measured values reported in PubChem BioAssay AID540276 (National Center for Advancing Translational Sciences (NCATS), 2011).
About 5,400 (1.8%) of roughly 300,000 compounds were called active. The inconclusive results got no clear call from the source; some entries with a clear call stand among them for comparison. The call rests on the fitted dose curve; tested in HEK293 cells. Potencies beside an inconclusive call are fits to weak or partial responses and may not hold up.

assay: qHTS for inhibitors of binding or entry into cells for Marburg Virus; settings: Marburg virus pseudotyped entry inhibition, cell reporter; series mostly up to 37.8 µM
Potency means the concentration at half of the fitted maximal effect.

SMILES | Potency
CCCCc1nc(Cl)c(C#N)c2c1CCCC2 | inactive
Cc1[nH]nc(-c2ccc(OCc3cnn(-c4ccccc4)c3)cc2O)c1Oc1ccc(Cl)cc1 | inconclusive: 15.8 µM [inhibitor, single point]
Cc1cc(C)cc(NC(=S)NCc2ccc(F)cc2)c1 | inconclusive: 3.16 µM [activator, partial curve, poor fit]
Cc1cccc(NC(=S)/N=C(\N)Nc2nc(C)c3ccc(C)cc3n2)c1 | active: 11.2 µM
O=c1c2c3c(sc2ncn1/N=C/c1ccco1)CCCC3 | inactive
Cc1nn(Cc2ccccc2Cl)c(C)c1C(=O)OCC(=O)NC1CCS(=O)(=O)C1 (centres undefined) | inconclusive: 0.112 µM [activator, full curve, poor fit]
O=C(N/N=C/C=C\c1ccccc1[N+](=O)[O-])c1ccccn1 | inactive
Cc1ccn2c(Nc3ccccc3C)c(-c3ccc(N4CCOCC4)cc3)nc2c1 | inconclusive: 35.5 µM [inhibitor, single point]
Cc1ccc(S(=O)(=O)NCCCNC(=O)N2CCOCC2)cc1 | inconclusive: 14.6 µM [activator, single point]
COc1cccc(C(=O)NCCCNC(=O)c2ccccn2)c1 | inactive
COc1ccc(C(=O)NNC(=S)NC(=O)c2ccc(Cl)cc2)cc1 | inconclusive: 28.2 µM [inhibitor, single point]
COc1ccc(NC2SC(=O)N(CC(=O)O)C2=O)cc1 (centres undefined) | inconclusive: 0.411 µM [inhibitor, partial curve, poor fit]
CCCCC[n+]1ccn(C2=C([O-])c3ccccc3C(=O)/C2=N\S(=O)(=O)c2ccccc2)c1 | active: 22.4 µM
O=C1CCCc2c1cc(C(=O)Nc1ccc(Br)cn1)c(=O)n2-c1ccccc1 | inactive
Cc1cccc(C(=O)O/N=C/c2c(Cl)n(C)c3ccccc23)c1 | inactive
CCOC(=O)C1CCN(Cc2cc(C(C)C)c(O)c(C(C)C)c2)CC1 | inconclusive: 35.5 µM [inhibitor, partial curve, poor fit]
CCOc1ccc(C2=NNC(c3cccs3)=Nc3ccc(OCC)cc32)cc1 | inactive
COc1cc(/C=C/C(=O)NC2CCCCC2)cc(OC)c1OC | inactive
O=C(O)c1sccc1Oc1ccc(NS(=O)(=O)c2ccccc2)cc1 | inactive
CC1(C)CN=C(Nc2nc3ccccc3s2)S1 | inconclusive: 3.55 µM [activator, partial curve, poor fit]
O=C(O)c1cccc(CN2C(=O)SC(Nc3ccccc3)C2=O)c1 (centres undefined) | inactive
O=C(CN1CCN(Cc2ccccc2)CC1)N/N=C/c1ccc(Br)s1 | inconclusive: 35.5 µM [inhibitor, single point]
CCOC(=O)/C(=N\Nc1ccc(Br)cc1)N1CCN(c2ccccc2OC)CC1 | inactive
COc1cccc(CN2CCN(CC(=O)NCCc3ccccc3)CC2)c1 | inconclusive: 0.891 µM [inhibitor, partial curve, poor fit]
CCOc1cc(N2CCOCC2)c(OCC)cc1NC(=O)c1ccccc1 | inactive

SMILES | Potency
N#CC1=C(N)Oc2cc(N)ccc2C1c1cccc(F)c1 (centres undefined) | inconclusive: 0.891 µM [inhibitor, full curve]
Nc1nc2ccc(C(=O)Nc3ccccc3)cc2s1 | inconclusive: 3.98 µM [activator, partial curve, poor fit]
CCCCn1c(SCC(=O)N2CC(=O)Nc3ccccc32)nnc1-c1ccoc1C | inactive
CCCCN(C(=O)c1ccc(C)o1)c1c(N)n(CCCC)c(=O)[nH]c1=O | inactive
O=C1N/C(=N\N=C\c2ccc3ncccc3c2)SC1Cc1ccc(SC(F)F)cc1 (centres undefined) | inactive
FC(F)(F)c1ccccc1NC(=S)Nc1cccc(Cl)c1 | inactive
Cc1ccc(/C=N/N2C(=O)C3C(C2=O)C2C=CC3C23CC3)o1 (centres undefined) | inconclusive: 29.1 µM [activator, partial curve, poor fit]
CCOC(=O)CSc1nnc(COc2ccc3ccccc3c2)o1 | inactive
C=CCC1(C#N)C(=S)NC2=C(C(=O)CC(C)(C)C2)C1c1ccc(Br)cc1 (centres undefined) | inconclusive: 29.1 µM [inhibitor, partial curve, poor fit]
Cc1cccc(NC(=O)C2CCN(c3nc(C)cc(C)n3)CC2)c1 | inactive
Cc1[nH][nH]c(=O)c1C(c1c(C)[nH][nH]c1=O)c1cn(Cc2ccc(Cl)c(Cl)c2)c2ccccc12 | active: 8.2 µM
CC(=O)c1cccc(CN2CCC(C(=O)Nc3cccc(-c4ccn[nH]4)c3)CC2)c1 | inconclusive: 35.5 µM [inhibitor, single point]
C1CNC(C23CC4CC(CC(C4)C2)C3)=N1 | inactive
CCOC(=O)c1ccc(S(=O)(=O)N2CCN(C(C)=O)CC2)cc1 | inconclusive: 0.631 µM [activator, single point]
Cc1ccc(SCC(=O)NNC(=O)c2ccccc2)cc1C | inactive
COc1ccc(CNC(=O)COC(=O)/C=C/c2cccs2)cc1 | inconclusive: 0.0231 µM [activator, full curve, poor fit]
CS(=O)(=O)c1ccc2nc(NC(=O)CCNC(=O)c3ccc([N+](=O)[O-])cc3)sc2c1 | inconclusive: 2.82 µM [inhibitor, single point]
CCC(Sc1nc2cc(OC)c(OC)cc2c(=O)n1Cc1ccco1)C(=O)NCCOC (centres undefined) | inactive
O=C(CCNS(=O)(=O)c1cccc(Cl)c1)OCC(=O)N1CCN(C(=O)c2ccco2)CC1 | inactive
O=C(CSc1nc2ccsc2c(=O)n1Cc1ccc(C(=O)O)cc1)NCC1CCCO1 (centres undefined) | inactive
CCc1cc(C(=O)NNC(=S)Nc2cc(C)ccc2C)cs1 | inconclusive: 25.9 µM [activator, single point]
Cn1c(CCNC(=O)c2ccco2)nc2cc(NS(=O)(=O)c3ccccc3)ccc21 | inconclusive: 29.1 µM [inhibitor, single point]
Cc1ccc(Nc2nc(N)nc(CN3CCCCCC3)n2)cc1 | inactive
COc1ccc(CCN2C(=O)NC(NC(=O)c3ccccc3OC)(C(F)(F)F)C2=O)cc1OC (centres undefined) | inactive
O=C(Nc1ccc(NC(=S)NC(=O)c2cccs2)cc1)c1ccccc1 | inconclusive: 6.31 µM [activator, partial curve, poor fit]

Compounds shown so far that have a CF3 group (2):
SMILES | Potency
FC(F)(F)c1ccccc1NC(=S)Nc1cccc(Cl)c1 | inactive
COc1ccc(CCN2C(=O)NC(NC(=O)c3ccccc3OC)(C(F)(F)F)C2=O)cc1OC (centres undefined) | inactive

Continued.

SMILES | Potency
CC(=O)OC[C@H]1O[C@H](CC=NO[C@H](C)c2cn([C@@H]3COC[C@@H]3O)nn2)C=C[C@@H]1OC(C)=O | inactive
CN1CCN(Cc2c(O)ccc3cc(-c4ccccn4)c(=O)oc23)CC1 | inconclusive: 4.47 µM [activator, full curve, poor fit]
CSCCC1NC(=O)N(CC(=O)Nc2cccc(S(=O)(=O)N3CCCCCC3)c2)C1=O (centres undefined) | inconclusive: 10 µM [inhibitor, partial curve, poor fit]
CC1CCCC(NC(=O)COC(=O)c2cccc(NS(=O)(=O)/C=C/c3ccccc3)c2)C1C (centres undefined) | inconclusive: 11.2 µM [inhibitor, partial curve, poor fit]
COc1ccccc1-n1c(Cc2ccccc2)nc2ccccc2c1=O | inconclusive: 10 µM [inhibitor, partial curve, poor fit]
CN=C1SC(CC(=O)Nc2sc(C)c(C)c2C(=O)OC)C(=O)N1C (centres undefined) | inactive
COc1ccc(NC(=O)c2ccco2)cc1NC(=O)c1ccc(C)c(C)c1 | inactive
O=C(Nc1c(C(=O)c2ccc(Cl)cc2)oc2ccccc12)c1cc(=O)c2ccccc2o1 | inconclusive: 1.78 µM [activator, full curve]
Cn1nnnc1SCCCNCc1cccc(OCc2ccccc2F)c1 | inconclusive: 14.1 µM [inhibitor, single point]
C/C(=N\NC(=O)Cn1cc([N+](=O)[O-])cn1)c1ccco1 | inactive
CCCOC(=O)CSC1=C(C#N)[C@H](c2ccccc2OCC)[C@H](C#N)C(=O)N1 | inactive
COc1ccc(C(CNC(=O)c2cc3ccccc3cc2OC)N2CCCC2)cc1 (centres undefined) | inconclusive: 12.6 µM [inhibitor, partial curve, poor fit]
N#Cc1c(-c2ccccc2)cc(-c2ccco2)c(C#N)c1N | inactive
O=C(c1cccs1)N1CCN=C1SCc1cccnc1 | inactive
CCCC(=O)Nc1nnc(-c2ccco2)s1 | inconclusive: 1.26 µM [activator, single point]
CSc1ccc(CN2CCN(Cc3ccc([N+](=O)[O-])cc3)CC2)cc1 | inconclusive: 4.47 µM [inhibitor, partial curve, poor fit]
CCN(CC)Cc1c(-c2ccccc2)[nH]c2ccc(C)cc2c1=O | inconclusive: 29.1 µM [activator, single point]
CCC(Sc1ncc(S(=O)(=O)c2ccc(C)cc2)c(=O)[nH]1)C(=O)Nc1cc(C)ccc1C (centres undefined) | inconclusive: 31.6 µM [activator, single point]
CC(Sc1nnnn1C1CCCC1)C(=O)Nc1cccc(S(=O)(=O)N2CCOCC2)c1 (centres undefined) | inactive
CC(Sc1nnc(CN2CCCC2)n1Cc1ccccc1)C(=O)Nc1ccc(F)cc1 (centres undefined) | inconclusive: 7.94 µM [inhibitor, partial curve, poor fit]
O=C(COc1ccccc1)NC(=S)N1CCc2ccccc21 | inactive
CCCSc1ncc(Cl)c(C(=O)Nc2ccc(S(=O)(=O)N3CCC(C)CC3)cc2)n1 | inconclusive: 31.6 µM [inhibitor, single point]
CNC(=S)N/N=C/c1cn(CCOc2ccc(OC)cc2)c2ccccc12 | inconclusive: 12.6 µM [inhibitor, single point]
COc1ccc(CNc2nc(-c3ccc(OC)cc3)cc(C(F)(F)F)n2)cc1 | inconclusive: 14.1 µM [inhibitor, single point]

Quoted at random: 3 entries already listed, in no set order.
SMILES | Potency
CCC(Sc1ncc(S(=O)(=O)c2ccc(C)cc2)c(=O)[nH]1)C(=O)Nc1cc(C)ccc1C (centres undefined) | inconclusive: 31.6 µM [activator, single point]
CSCCC1NC(=O)N(CC(=O)Nc2cccc(S(=O)(=O)N3CCCCCC3)c2)C1=O (centres undefined) | inconclusive: 10 µM [inhibitor, partial curve, poor fit]
COc1ccccc1-n1c(Cc2ccccc2)nc2ccccc2c1=O | inconclusive: 10 µM [inhibitor, partial curve, poor fit]
